## Percent effect of library compounds

Chains of the proteins cited; added tags and fusions are not shown. Residues count along the entry.
UniProt P9WPC5, whole entry: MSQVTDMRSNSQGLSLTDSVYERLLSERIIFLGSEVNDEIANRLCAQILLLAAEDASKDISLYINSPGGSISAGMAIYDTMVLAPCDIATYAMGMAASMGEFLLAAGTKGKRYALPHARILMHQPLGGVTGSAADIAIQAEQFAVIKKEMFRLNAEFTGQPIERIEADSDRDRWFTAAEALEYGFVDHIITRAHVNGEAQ
UniProt P9WPC3, whole entry partner: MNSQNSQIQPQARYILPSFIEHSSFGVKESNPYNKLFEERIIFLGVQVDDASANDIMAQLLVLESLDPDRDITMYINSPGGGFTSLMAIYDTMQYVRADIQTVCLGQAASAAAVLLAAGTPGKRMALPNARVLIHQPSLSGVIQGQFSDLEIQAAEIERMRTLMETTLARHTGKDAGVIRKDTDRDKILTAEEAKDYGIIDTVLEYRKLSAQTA
UniProt P9WNZ1, whole entry: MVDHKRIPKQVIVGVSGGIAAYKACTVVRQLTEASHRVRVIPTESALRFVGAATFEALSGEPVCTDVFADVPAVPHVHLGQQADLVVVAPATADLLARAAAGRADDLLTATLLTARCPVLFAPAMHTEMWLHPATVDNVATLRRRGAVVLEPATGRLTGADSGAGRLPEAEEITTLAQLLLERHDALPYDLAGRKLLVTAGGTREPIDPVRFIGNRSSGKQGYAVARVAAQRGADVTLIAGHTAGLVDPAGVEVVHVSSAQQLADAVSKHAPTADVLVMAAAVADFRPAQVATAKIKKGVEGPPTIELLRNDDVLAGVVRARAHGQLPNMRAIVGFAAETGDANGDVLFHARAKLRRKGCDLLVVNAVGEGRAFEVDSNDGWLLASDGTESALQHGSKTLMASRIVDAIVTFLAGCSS
UniProt Q8IDJ8, 1-583: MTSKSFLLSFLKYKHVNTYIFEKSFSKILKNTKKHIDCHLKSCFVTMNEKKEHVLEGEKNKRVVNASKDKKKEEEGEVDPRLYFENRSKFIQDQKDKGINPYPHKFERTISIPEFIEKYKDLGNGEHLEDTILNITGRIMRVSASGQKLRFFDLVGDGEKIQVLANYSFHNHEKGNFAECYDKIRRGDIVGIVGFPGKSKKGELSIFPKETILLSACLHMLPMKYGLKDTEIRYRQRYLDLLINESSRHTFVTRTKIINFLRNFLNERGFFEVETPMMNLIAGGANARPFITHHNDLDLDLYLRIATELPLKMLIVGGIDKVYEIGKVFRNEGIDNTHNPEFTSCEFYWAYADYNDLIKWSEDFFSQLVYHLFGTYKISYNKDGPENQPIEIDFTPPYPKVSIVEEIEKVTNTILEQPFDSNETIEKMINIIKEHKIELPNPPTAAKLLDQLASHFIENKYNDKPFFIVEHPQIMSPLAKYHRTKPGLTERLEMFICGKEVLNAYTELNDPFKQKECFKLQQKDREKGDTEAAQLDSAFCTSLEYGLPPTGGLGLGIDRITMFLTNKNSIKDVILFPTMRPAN

A: 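ClpP1P2, Mycobacterium tuberculosis (UniProt P9WPC5 and UniProt P9WPC3). Protease assay of ClpP1P2, read by the AMC dye that it sets free. Concentration: 50 µM. Direction is inferred from only a few compounds that gave an IC50; most scored high, so higher reads as stronger inhibition. Most other retested compounds had strongly negative values. Size under these conditions: about 69,000 compounds, about 10 of them at 50% or above in at least one test.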
B: 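Enzyme assay of CoaBC with a phosphate dye (Biomol Green) read at 650 nm. Target: Coenzyme A biosynthesis protein CoaBC, Mycobacterium tuberculosis (UniProt P9WNZ1). Concentration: 30 µM. Direction is inferred from only a few compounds that gave an IC50; most scored high, so higher reads as stronger inhibition. Most strong results did not repeat in a second test. Size under these conditions: about 67,000 compounds, about 40 of them at 50% or above in at least one test.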
C: 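Lysine-tRNA ligase, Plasmodium falciparum 3D7 (UniProt Q8IDJ8). Enzyme assay of the cytosolic lysyl-tRNA synthetase in 384-well plates, read by luminescence. Compounds at 30 µM. Direction is inferred from only a few compounds that gave an IC50; most scored high, so higher reads as stronger inhibition. Of about 69,000 compounds tested this way, about 49 (0.071%) reached 50% or more in at least one test.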

The filed quantity is “Percent Effect” (%).
How 0% and 100% were set is not recorded. Most values in the screen are low, and negative values occur.
The compounds are a random part of those screened.
A dash means the value is not listed here; it may have been measured.

SMILES,A,B,C
CCc1[nH]ncc1C(=O)N1CCN(c2nc(C)cc(OC)n2)CC1,3.362%,-2.269%,7.244%
CCOc1ccnc(N2CCN(CCOC)CC2)n1,-2.934%,2.554%,3.993%
COCC(=O)N1CCC(c2nc3ccc(N4CCOCC4)cn3n2)CC1,-12.23%,7.662%,1.115%
COc1cccc(Cn2cccc(C#N)c2=O)c1,-7.537%,7.372%,5.516%
Cc1ccc(C(=O)N2CCc3c(CNS(C)(=O)=O)cncc3C2)o1,-5.808%,1.904%,6.312%
O=C(c1cnc(NCc2cccnc2)c(Cl)c1)N1CCCCC1,-14.5%,0.7212%,-1.924%
c1cncc(-c2nnc([C@H]3CCN(CC4CC4)C3)o2)c1,-3.989%,13.77%,-4.244%
CNC(=O)c1cc2c(nc1N(C)C)CCN(S(=O)(=O)N(C)C)CC2,-4.193%,1.525%,3.022%
CC(C)NC(=O)[C@H]1C[C@@H]2[C@@H](C1)OCCN2Cc1ccco1,-0.05995%,1.29%,0.5231%
COCC(O)CN1CC(C)(C)CN(C(=O)CCc2ccccc2)CC1=O (centres unmarked),-4.313%,-1.453%,6.547%
Cc1ccc(CN2CCOC3(COCCN(C(C)C)C3)C2)s1 (centres unmarked),-4.688%,-4%,-5.618%
COCCOc1ccc(NC(=O)C2CC(=O)N(CC3CC3)C2)cn1 (centres unmarked),-1.409%,18.2%,-0.4971%
CN(C)[C@@H]1CCN(C(=O)C2CCOCC2)[C@H]1Cc1ccncc1,-1.9%,-4.684%,1.734%
COc1ccc(COCC(=O)N2CCCC(n3cncn3)C2)cc1 (centres unmarked),4.757%,5.006%,-2.59%
COc1cc(CNCCn2ccnc2)cc2c1OCO2,9.222%,-6.615%,15.12%
CNC(=O)CN(C)C(=O)c1cc(Cl)c(I)cc1OC,-12.54%,3.797%,5.195%
c1cnc(NCc2noc3c2CN(C2CCOCC2)CC3)nc1,7.91%,1.142%,3.322%
Cc1cc(N2CC(c3n[nH]c4nccnc34)C2)ncn1,5.016%,1.703%,2.189%
CCc1c(C)nc2n(c1=O)CC(C(=O)NCc1cccs1)CS2 (centres unmarked),-8.376%,-0.6588%,5.312%
c1ccc(CCNc2cccc(C3CCCNC3)n2)cc1 (centres unmarked),-6.253%,4.326%,1.611%
CN(CCn1cccn1)S(=O)(=O)c1cccc(Cl)c1C#N,5.288%,3.733%,5.563%
CC(O)c1cn(Cc2ccc(Cl)cc2Cl)nn1 (centres unmarked),-12.26%,-3.452%,4.121%
O=C(Cn1nc(-c2cccs2)ccc1=O)N1CCCCCC1,-3.533%,-6.326%,-1.504%
CCOC(=O)CN1CCC2(CCCN(CCOc3ccccc3)C2)C1 (centres unmarked),1.095%,3.294%,1.933%
Cc1ccc(-c2nc(CSCCC(=O)NC(N)=O)co2)c(C)c1,7.628%,9.091%,-3.955%
NC(=O)CCN1CCC(C(=O)c2cc(F)ccc2F)CC1,-2.021%,-0.4049%,6.233%
O=C(CN1C[C@H]2CC[C@@H]1CN(Cc1ccccn1)C2)Nc1ccccc1,-28.15%,3.321%,6.884%
CNC(=O)c1cnc(/C=C/c2cc(OC)c(OC)c(OC)c2)s1,1.542%,10.14%,7.237%
O=C1COC2(CCN(Cc3ccc(F)cc3)CC2)CN1,1.299%,-3.52%,10.18%
CCCn1cc(CN2CCCC2c2nccc(CN(C)C)n2)cn1 (centres unmarked),-3.227%,-2.696%,-1.272%
CC(c1ccccn1)N(C)Cc1cccc(C(=O)Nc2nccn2C)c1 (centres unmarked),10.71%,-3.524%,-4.71%
O=C([C@@H]1COC[C@H]2CN(c3ccncn3)C[C@H]21)N1CCCCO1,-5.561%,4.139%,2.95%
N#CC1(C(=O)N2CCN(Cc3ccon3)CC2)CCC1,-6.977%,5.398%,7.573%
Cc1nonc1-c1nc(C(C)C)nn1-c1ccc2c(c1)OCO2,-4.678%,0.9938%,1.104%
Cc1cnc(CN2CCC(N(C)Cc3noc(C4CC4)n3)C2)o1 (centres unmarked),-2.09%,-4.29%,0.9781%
Cc1ccc(CN2CCC(c3cnccn3)CC2)s1,-0.3164%,3.679%,-1.522%
CNC(=O)C1CN(C(=O)c2ccncc2)CCN(S(C)(=O)=O)C1 (centres unmarked),-2.997%,-0.2466%,0.651%
COc1ccccc1N1CC(NC(=O)Cn2cc(C(C)C)nn2)CC1=O (centres unmarked),-26.51%,-2.184%,-0.1051%
CN(C)C(=O)[C@@H]1C[C@@H]2CCN(Cc3ccncc3)C[C@@H]2O1,7.413%,6.303%,2.227%
NC(=O)COc1ccc(CN2CCC3(CC2)[C@H](O)C[C@@H]3O)cc1Cl,-6.091%,-1.217%,-3.855%
O=C(NCC1CCOCC1)[C@H]1C[C@@H]2CCN(Cc3ccncc3)C[C@@H]2O1,-4.031%,-1.396%,2.753%
O=C(C1=CC2(CCN(CCO)CC2)c2ccccc21)N1CCCC1,-7.179%,-14.85%,3.245%
Cc1cc2cc(C(=O)N3CCN(CCO)[C@@H]4CS(=O)(=O)C[C@@H]43)ccc2o1,-4.084%,4.668%,-3.181%
Cc1oc(-c2ccsc2)nc1CNC(C)Cn1cccn1 (centres unmarked),-9.508%,-3.481%,4.949%
CCN(CC(=O)NC)S(=O)(=O)c1cnc2c(c1)c(C)nn2C,0.2031%,-12.4%,5.386%
COCc1csc(NC(=O)NCc2ccc(C)s2)n1,-7.935%,0.6483%,4.506%
O=C(Cc1ccc(Cl)s1)Nc1ccc2c(c1)C(=O)NC2=O,9.661%,7.753%,25.37%
Cc1cc(N[C@@H](CO)c2ccccc2)n2nc(C)c(C)c2n1,-26.69%,1.863%,4.561%
O=C(NC[C@]1(O)CCN(Cc2ccccc2F)C[C@H]1O)c1c[nH]cn1,-6.388%,0.9132%,-0.412%
O=C(NCCN1CCOCC1)c1n[nH]c(=O)c2ccccc12,15.42%,3.133%,6.504%
CS(=O)(=O)N[C@@H]1CN(Cc2ccco2)C[C@@H]2CCCO[C@@H]21,-9.017%,5.212%,-0.3833%
COC[C@@H]1CN(C)C(=O)[C@@H]2CCN(Cc3ccco3)CC[C@H]12,-8.118%,-,11.12%
O=C(c1ccc(Cn2cccc2)cc1)N1CCN(CCO)CC1,22.71%,-1.118%,1.226%
COCC(=O)NC[C@H]1OC[C@@H](NC2CCC(F)(F)CC2)[C@@H]1O,2.323%,-2.87%,1.841%
CCOc1ccnc(N2CCN(C(=O)c3cc[nH]n3)CC2)n1,-24.48%,2.362%,1.513%
CN1CCN(C(=O)CCCc2ccccc2)CC(O)(Cn2cccn2)C1 (centres unmarked),-12.94%,-6.045%,0.4553%
CC(C)S(=O)(=O)NCC1CCCN(C(=O)c2ccc3c(c2)OCCO3)C1 (centres unmarked),-5.785%,-1.493%,2.886%
CC(C)n1cnnc1CN(C)Cc1cnc(-c2ccccn2)nc1,10.34%,1.085%,5.323%
CN(C)C[C@@H]1[C@H]2CN(C(=O)c3cc(=O)[nH]c4ccc(F)cc34)C[C@@H]12,18.27%,-0.2445%,-4.536%
CN(C)C(=O)[C@@H]1CCO[C@@H]2CCN(Cc3ccc4c(c3)OCO4)C[C@@H]21,4.389%,0.3861%,3.681%
COCC1CN(Cc2ccc(OC)cc2)S(=O)(=O)c2cnccc2O1 (centres unmarked),-1.728%,-0.3681%,3.384%
Cc1cnc(CN2CCOC(CN(C)c3cccnn3)C2)cn1 (centres unmarked),-8.491%,6.263%,5.42%
O=S(=O)(C1CC1)N1CCC2(CN(c3ccccn3)C2)C1,3.794%,7.5%,0.4196%

The first 4 entries again:

SMILES,A,B,C
CCc1[nH]ncc1C(=O)N1CCN(c2nc(C)cc(OC)n2)CC1,3.362%,-2.269%,7.244%
CCOc1ccnc(N2CCN(CCOC)CC2)n1,-2.934%,2.554%,3.993%
COCC(=O)N1CCC(c2nc3ccc(N4CCOCC4)cn3n2)CC1,-12.23%,7.662%,1.115%
COc1cccc(Cn2cccc(C#N)c2=O)c1,-7.537%,7.372%,5.516%

The values are deposited in ChEMBL (CHEMBL3988442, “University of Dundee, Small-Polar-MMV Screening Library” (2021)).